Experimental data as given in paper PMC9266683.
Results are given in words; binding and its absence hold for the method and conditions named. Binding seen in cells or lysates may run through a third protein. Some entries that bind do so weakly or less than the wild type. Where a sequence is shown, tags or fusion partners need not be part of it.

The chains behind the UniProt entries cited, without tags or fusion partners.
UniProt Q9XIE1: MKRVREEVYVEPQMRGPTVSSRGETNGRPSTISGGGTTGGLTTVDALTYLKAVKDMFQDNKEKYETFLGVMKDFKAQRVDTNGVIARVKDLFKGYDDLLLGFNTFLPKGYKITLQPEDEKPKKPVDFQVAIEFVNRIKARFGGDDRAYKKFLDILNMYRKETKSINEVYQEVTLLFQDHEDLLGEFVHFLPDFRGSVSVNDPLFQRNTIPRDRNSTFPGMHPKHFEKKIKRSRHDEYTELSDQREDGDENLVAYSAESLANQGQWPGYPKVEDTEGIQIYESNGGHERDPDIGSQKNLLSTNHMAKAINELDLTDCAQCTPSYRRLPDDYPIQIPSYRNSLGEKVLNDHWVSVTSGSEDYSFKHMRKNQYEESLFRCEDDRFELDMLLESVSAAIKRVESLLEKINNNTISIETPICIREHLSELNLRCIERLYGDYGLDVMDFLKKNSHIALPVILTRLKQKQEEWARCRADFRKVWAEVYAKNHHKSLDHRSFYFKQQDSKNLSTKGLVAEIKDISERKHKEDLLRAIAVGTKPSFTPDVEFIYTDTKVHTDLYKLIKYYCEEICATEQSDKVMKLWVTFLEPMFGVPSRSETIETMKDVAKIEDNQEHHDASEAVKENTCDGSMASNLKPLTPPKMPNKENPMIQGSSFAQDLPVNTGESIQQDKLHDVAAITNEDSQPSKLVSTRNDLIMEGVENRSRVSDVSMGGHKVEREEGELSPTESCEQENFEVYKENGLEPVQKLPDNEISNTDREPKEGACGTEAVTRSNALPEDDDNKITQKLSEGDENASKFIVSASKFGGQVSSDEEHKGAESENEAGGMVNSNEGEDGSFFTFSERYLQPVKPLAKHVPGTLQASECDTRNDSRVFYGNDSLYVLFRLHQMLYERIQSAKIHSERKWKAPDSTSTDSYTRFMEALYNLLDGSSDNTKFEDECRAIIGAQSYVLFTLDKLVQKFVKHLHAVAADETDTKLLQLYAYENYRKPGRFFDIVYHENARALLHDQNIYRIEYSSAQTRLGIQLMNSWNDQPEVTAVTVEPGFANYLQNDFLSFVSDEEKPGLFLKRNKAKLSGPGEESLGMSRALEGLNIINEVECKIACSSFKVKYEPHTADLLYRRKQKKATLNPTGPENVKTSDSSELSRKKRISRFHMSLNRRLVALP

T1: SNL2, intact, fused to the C-terminal half of luciferase (cLUC) (Arabidopsis thaliana) (UniProt Q9LFQ3)
T1 sequence: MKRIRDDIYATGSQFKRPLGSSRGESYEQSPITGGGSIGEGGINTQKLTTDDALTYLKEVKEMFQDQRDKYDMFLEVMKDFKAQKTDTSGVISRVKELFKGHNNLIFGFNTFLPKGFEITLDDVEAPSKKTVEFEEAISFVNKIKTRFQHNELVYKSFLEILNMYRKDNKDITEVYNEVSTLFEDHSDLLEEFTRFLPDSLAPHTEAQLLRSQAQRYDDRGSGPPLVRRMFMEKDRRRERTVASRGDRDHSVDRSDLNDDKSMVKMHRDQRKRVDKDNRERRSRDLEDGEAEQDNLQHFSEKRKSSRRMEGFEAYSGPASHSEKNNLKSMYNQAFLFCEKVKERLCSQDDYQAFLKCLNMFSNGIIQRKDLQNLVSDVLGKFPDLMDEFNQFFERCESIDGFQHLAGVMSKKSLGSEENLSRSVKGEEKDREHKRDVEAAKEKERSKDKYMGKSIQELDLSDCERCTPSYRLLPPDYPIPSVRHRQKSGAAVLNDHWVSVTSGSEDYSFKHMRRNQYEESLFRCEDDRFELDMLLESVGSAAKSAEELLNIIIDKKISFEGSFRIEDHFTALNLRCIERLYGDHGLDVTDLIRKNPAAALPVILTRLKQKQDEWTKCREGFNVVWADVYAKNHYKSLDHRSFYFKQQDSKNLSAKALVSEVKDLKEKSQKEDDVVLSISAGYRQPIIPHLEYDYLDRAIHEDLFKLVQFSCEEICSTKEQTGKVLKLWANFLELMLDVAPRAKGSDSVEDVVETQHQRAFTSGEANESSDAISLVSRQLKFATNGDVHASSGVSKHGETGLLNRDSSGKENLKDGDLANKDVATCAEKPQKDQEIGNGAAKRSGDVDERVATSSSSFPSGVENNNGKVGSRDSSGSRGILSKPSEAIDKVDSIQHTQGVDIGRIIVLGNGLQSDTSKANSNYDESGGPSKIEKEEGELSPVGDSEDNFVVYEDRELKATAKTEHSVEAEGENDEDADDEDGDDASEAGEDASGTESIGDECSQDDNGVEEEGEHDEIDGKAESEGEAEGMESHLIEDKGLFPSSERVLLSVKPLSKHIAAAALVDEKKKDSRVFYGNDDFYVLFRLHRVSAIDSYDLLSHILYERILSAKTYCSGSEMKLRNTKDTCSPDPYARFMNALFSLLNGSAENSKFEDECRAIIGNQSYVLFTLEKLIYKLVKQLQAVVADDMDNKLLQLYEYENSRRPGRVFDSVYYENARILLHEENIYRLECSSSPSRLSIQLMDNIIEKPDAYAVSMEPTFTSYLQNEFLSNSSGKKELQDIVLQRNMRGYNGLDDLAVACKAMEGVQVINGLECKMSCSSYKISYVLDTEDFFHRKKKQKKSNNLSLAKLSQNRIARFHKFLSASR

T2: SNL1-PAH (aa 1–450), fused to the C-terminal half of luciferase (cLUC) (Arabidopsis thaliana) (UniProt Q9SRH9)
T2 sequence: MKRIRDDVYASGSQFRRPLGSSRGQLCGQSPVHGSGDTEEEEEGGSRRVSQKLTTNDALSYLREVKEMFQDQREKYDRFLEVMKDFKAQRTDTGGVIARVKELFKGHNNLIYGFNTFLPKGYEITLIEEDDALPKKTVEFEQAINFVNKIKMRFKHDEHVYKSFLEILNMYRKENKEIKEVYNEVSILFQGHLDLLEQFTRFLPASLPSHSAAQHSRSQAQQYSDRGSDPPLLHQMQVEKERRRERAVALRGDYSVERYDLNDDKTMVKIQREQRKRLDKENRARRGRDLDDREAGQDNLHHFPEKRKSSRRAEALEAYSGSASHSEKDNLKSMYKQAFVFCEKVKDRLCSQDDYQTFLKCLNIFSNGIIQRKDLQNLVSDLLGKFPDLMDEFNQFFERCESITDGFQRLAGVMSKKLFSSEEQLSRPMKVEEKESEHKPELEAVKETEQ


Tests used:
Assay in all cases: split reporter; firefly luciferase complementation imaging (LCI); VAL1 constructs fused to nLUC, SNL constructs to cLUC; co-infiltrated into N. benthamiana leaves, 22 °C for 48 h, imaged with a CCD
[1] = target: SNL5, intact, fused to the C-terminal half of luciferase (cLUC) (Arabidopsis thaliana) (UniProt Q9XIE1)
[2] = target: T1, SNL2, intact, fused to the C-terminal half of luciferase (cLUC) (Arabidopsis thaliana)
[3] = target: T2, SNL1-PAH (aa 1–450), fused to the C-terminal half of luciferase (cLUC) (Arabidopsis thaliana)

binding [1] | binding [2] | binding [3] | Binder
binds | binds | binds | VAL1, intact, fused to the N-terminal half of luciferase (nLUC) (protein, UniProt Q8W4L5 1-790) MFEVKMGSKMCMNASCGTTSTVEWKKGWPLRSGLLADLCYRCGSAYESSLFCEQFHKDQSGWRECYLCSKRLHCGCIASKVTIELMDYGGVGCSTCACCHQLNLNTRGENPGVFSRLPMKTLADRQHVNGESGGRNEGDLFSQPLVMGGDKREEFMPHRGFGKLMSPESTTTGHRLDAAGEMHESSPLQPSLNMGLAVNPFSPSFATEAVEGMKHISPSQSNMVHCSASNILQKPSRPAISTPPVASKSAQARIGRPPVEGRGRGHLLPRYWPKYTDKEVQQISGNLNLNIVPLFEKTLSASDAGRIGRLVLPKACAEAYFPPISQSEGIPLKIQDVRGREWTFQFRYWPNNNSRMYVLEGVTPCIQSMMLQAGDTVTFSRVDPGGKLIMGSRKAANAGDMQGCGLTNGTSTEDTSSSGVTENPPSINGSSCISLIPKELNGMPENLNSETNGGRIGDDPTRVKEKKRTRTIGAKNKRLLLHSEESMELRLTWEEAQDLLRPSPSVKPTIVVIEEQEIEEYDEPPVFGKRTIVTTKPSGEQERWATCDDCSKWRRLPVDALLSFKWTCIDNVWDVSRCSCSAPEESLKELENVLKVGREHKKRRTGESQAAKSQQEPCGLDALASAAVLGDTIGEPEVATTTRHPRHRAGCSCIVCIQPPSGKGRHKPTCGCTVCSTVKRRFKTLMMRRKKKQLERDVTAAEDKKKKDMELAESDKSKEEKEVNTARIDLNSDPYNKEDVEAVAVEKEESRKRAIGQCSGVVAQDASDVLGVTELEGEGKNVREEPRVSS
binds | binds | binds | VAL1-CW (aa 458–673), fused to the N-terminal half of luciferase (nLUC) (domain or fragment, UniProt Q8W4L5 458-673) DDPTRVKEKKRTRTIGAKNKRLLLHSEESMELRLTWEEAQDLLRPSPSVKPTIVVIEEQEIEEYDEPPVFGKRTIVTTKPSGEQERWATCDDCSKWRRLPVDALLSFKWTCIDNVWDVSRCSCSAPEESLKELENVLKVGREHKKRRTGESQAAKSQQEPCGLDALASAAVLGDTIGEPEVATTTRHPRHRAGCSCIVCIQPPSGKGRHKPTCGCT
